Results are given in words; binding and its absence hold for the method and conditions named. In cells and extracts the contact can be indirect. Some entries that bind do so weakly or less than the wild type.

Sequences of proteins named here, by UniProt entry; tags and fusion partners are left off.
UniProt P04406: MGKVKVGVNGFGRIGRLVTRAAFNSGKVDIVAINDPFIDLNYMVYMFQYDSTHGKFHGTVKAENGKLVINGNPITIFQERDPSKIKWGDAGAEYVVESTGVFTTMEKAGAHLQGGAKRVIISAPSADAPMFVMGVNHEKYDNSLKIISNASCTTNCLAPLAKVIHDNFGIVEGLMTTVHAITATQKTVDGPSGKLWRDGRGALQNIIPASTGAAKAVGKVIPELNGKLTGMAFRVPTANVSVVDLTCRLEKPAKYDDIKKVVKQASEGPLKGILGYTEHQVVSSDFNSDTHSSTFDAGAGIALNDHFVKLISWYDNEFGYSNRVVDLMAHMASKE

One molecule from PMC5823973 can be followed below.

The target of the assay is GAPDH (human (endogenous in 143B cybrid cells)) (UniProt P04406). Nature of the assay: co-IP; anti-GAPDH antibody coupled to Dynabeads M-270 Epoxy, incubated with 3 mg lysate of mT7, mT45 or mT80 cells for 30 minutes at 4°C; lysis buffer 140 mM NaCl, 5 mM EDTA, 1% Triton X-100, 20 mM Tris pH 7.4; three washes; western blot; IgG isotype control. Background: A western blot detects proteins with antibodies after separation by electrophoresis.

B1: malate dehydrogenase 1 (MDH1) (enzyme, UniProt P40925 1-334)
chain: MSEPIRVLVTGAAGQIAYSLLYSIGNGSVFGKDQPIILVLLDITPMMGVLDGVLMELQDCALPLLKDVIATDKEDVAFKDLDVAILVGSMPRREGMERKDLLKANVKIFKSQGAALDKYAKKSVKVIVVGNPANTNCLTASKSAPSIPKENFSCLTRLDHNRAKAQIALKLGVTANDVKNVIIWGNHSSTQYPDVNHAKVKLQGKEVGVYEALKDDSWLKGEFVTTVQQRGAAVIKARKLSSAMSAAKAICDHVRDIWFGTPEGEFVSMGVISDGNSYGVPDDLLYSFPVVIKNKTWKFVEGLPINDFSREKMDLTAKELTEEKESAFEFLSSA
As to B1, the binding result is recorded as “binds”.
